In the supplement of paper PMC12024529:
Structures can show the parent of a compound that is named as a salt. The list shows a part of the results. Baselines shift from plate to plate; read single values as rough.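 Wild-type or misfolding-prone missense mutant B-domain-deleted factor VIII, fused to Gaussia luciferase, is stably expressed in HEK293 lines. Each score is (mean triplicate-well luminescence minus DMSO mean) divided by DMSO standard deviation. Hits score at least 2; lower scores could stem from decreased secretion or poorer cell viability.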

Tests used:
[1] = system: HEK293 WT BDD-FVIII-Gluc; assay: secreted FVIII-Gluc luciferase Z-score vs DMSO control; higher = more FVIII-Gluc secretion; settings: 5 µM; 24 h
[2] = system: HEK293 p.N1941S BDD-FVIII-Gluc; assay: as above; settings: 5 µM; 24 h

| SMILES | secreted FVIII-Gluc luciferase Z-score [1] | secreted FVIII-Gluc luciferase Z-score [2] |
| --- | --- | --- |
| Nc1ccc(S(=O)(=O)Nc2nccs2)cc1 [Sulfathiazole] | inactive: -1.26 | inactive: 0.671 |
| OC(CCN1CCCCC1)(c1ccccc1)c1ccccc1 [Pridinol Methanesulfonate] | inactive: -0.894 | inactive: 0.928 |
| CN1C(C(=O)Nc2ccccn2)=C(O)c2ccccc2S1(=O)=O [Piroxicam (Feldene)] | inactive: -0.817 | inactive: -0.379 |
| Clc1cccc(Cl)c1NC1=NCCN1 [Clonidine hydrochloride (Catapres)] | inactive: -1.8 | inactive: -1.07 |
| CNC(=O)c1cc(Oc2ccc(NC(=O)Nc3ccc(Cl)c(C(F)(F)F)c3)cc2)ccn1 [Sorafenib (Nexavar)] | inactive: -2.84 | inactive: -9.15 |
| Cc1c(NC(=O)c2cccnc2)c(=O)n(-c2ccccc2)n1C [Nifenazone] | inactive: -1.25 | inactive: 1.38 |
| O=C(O)Cc1cc(I)c(Oc2ccc(O)c(I)c2)c(I)c1 [Tiratricol] | active: 3.45 | inactive: 1.74 |
| NC(=O)c1ncn([C@@H]2O[C@H](CO)[C@@H](O)[C@H]2O)c1N [Acadesine] | inactive: -2.7 | inactive: -1.13 |
| CC(COc1ccccc1)N(CCCl)Cc1ccccc1 (stereo unspecified) [Phenoxybenzamine HCl] | inactive: 0.114 | inactive: -0.951 |
| CN(C)CCC(c1ccc(Br)cc1)c1ccccn1 (stereo unspecified) [Brompheniramine] | inactive: -1.05 | inactive: -1.54 |
| Cc1ccc(C(=O)C(C)CN2CCCCC2)cc1 (stereo unspecified) [Tolperisone HCl] | inactive: 0.602 | inactive: -0.276 |
| CCOc1ccccc1OC(c1ccccc1)C1CNCCO1 (stereo unspecified) [Reboxetine mesylate] | inactive: -1.21 | inactive: -3.67 |
| CC[C@H]1OC(=O)[C@H](C)[C@@H](O[C@H]2C[C@@](C)(OC)[C@@H](O)[C@H](C)O2)[C@H](C)[C@@H](O[C@@H]2O[C@H](C)C[C@H](N(C)C)[C@H]2O)[C@](C)(O)C[C@@H](C)CN(C)[C@H](C)[C@@H](O)[C@]1(C)O [Azithromycin Dihydrate] | inactive: -0.277 | inactive: -0.448 |
| Cc1ncc([N+](=O)[O-])n1CCO [Metronidazole (Flagyl)] | inactive: -0.209 | inactive: 0.933 |
| NC(=O)C(c1ccccc1)(c1ccccc1)[C@@H]1CCN(CCc2ccc3c(c2)CCO3)C1 [Darifenacin HBr] | inactive: -0.846 | inactive: -1.64 |
| CCN1CCC[C@H]1CNC(=O)c1cc(S(N)(=O)=O)ccc1OC [Levosulpiride (Levogastrol)] | inactive: -1.52 | inactive: -0.823 |
| CC(C)(C)CC(C)(C)c1ccc(OCCOCC[N+](C)(C)Cc2ccccc2)cc1 [Benzethonium chloride] | inactive: -2.48 | inactive: -0.901 |
| CC(C)c1nc(CN(C)C(=O)N[C@H](C(=O)N[C@@H](Cc2ccccc2)C[C@H](O)[C@H](Cc2ccccc2)NC(=O)OCc2cncs2)C(C)C)cs1 [Ritonavir] | inactive: -0.261 | inactive: -4.53 |
| COc1cc(Cc2cnc(N)nc2N)cc(OC)c1OC [Trimethoprim] | inactive: 1.45 | inactive: 0.604 |
| CCc1oc2ccccc2c1C(=O)c1cc(Br)c(O)c(Br)c1 [Benzbromarone] | inactive: -0.651 | inactive: -0.643 |
| Cc1ccc(N(CC2=NCCN2)c2cccc(O)c2)cc1 [Phentolamine mesilate] | active: 2.04 | inactive: -0.857 |
| O=C(Oc1ccccc1C(=O)O)c1ccccc1O [Sasapyrine] | inactive: -4.14 | inactive: 0.856 |
| O=C(Nc1cccc2c(=O)cc(-c3nnn[nH]3)oc12)c1ccc(OCCCCc2ccccc2)cc1 [Pranlukast] | inactive: 0.81 | inactive: 0.854 |
| O=C(O)C1=CO[C@@H](O[C@@H]2O[C@H](CO)[C@@H](O)[C@H](O)[C@H]2O)[C@@H]2C(CO)=CC[C@H]12 [Geniposidic acid] | inactive: 0.899 | inactive: -0.0303 |
| COc1cc2nc(N(C)CCCNC(=O)C3CCCO3)nc(N)c2cc1OC (stereo unspecified) [Alfuzosin hydrochloride (Uroxatral)] | inactive: -1.02 | inactive: -1.18 |
| O=C(O)COCCN1CCN(C(c2ccccc2)c2ccc(Cl)cc2)CC1 (stereo unspecified) [Cetirizine Dihydrochloride] | inactive: -3 | inactive: -0.00177 |
| NS(=O)(=O)c1cc2c(cc1Cl)NC(C(Cl)Cl)NS2(=O)=O (stereo unspecified) [Trichlormethiazide (Achletin)] | inactive: -0.515 | inactive: 1.32 |

2 entries from above, bar-delimited.
SMILES | secreted FVIII-Gluc luciferase Z-score [1] | secreted FVIII-Gluc luciferase Z-score [2]
Cc1c(NC(=O)c2cccnc2)c(=O)n(-c2ccccc2)n1C [Nifenazone] | inactive: -1.25 | inactive: 1.38
Cc1ncc([N+](=O)[O-])n1CCO [Metronidazole (Flagyl)] | inactive: -0.209 | inactive: 0.933

Following part

| SMILES | secreted FVIII-Gluc luciferase Z-score [1] | secreted FVIII-Gluc luciferase Z-score [2] |
| --- | --- | --- |
| Cc1ccc(C(=O)Nc2ccc(CN3CCN(C)CC3)c(C(F)(F)F)c2)cc1C#Cc1cnc2cccnn12 | inactive: -12.5 | inactive: -5.13 |
| NC(=O)Cc1cccc(C(=O)c2ccccc2)c1N [Nepafenac] | inactive: 0.00292 | inactive: -2.15 |
| Cc1nc(-c2ccc(OCC(C)C)c(C#N)c2)sc1C(=O)O [Febuxostat (Uloric)] | inactive: -3.02 | inactive: 0.112 |
| CC(=O)OCC(=O)[C@@]1(O)CC[C@H]2[C@@H]3CCC4=CC(=O)C=C[C@]4(C)[C@H]3[C@@H](O)C[C@@]21C [Prednisolone acetate (Omnipred)] | active: 6.13 | active: 6.76 |
| Cc1ccc(C(=O)c2ccc(CC(=O)O)n2C)cc1 [Tolmetin Sodium] | inactive: -0.619 | inactive: 1.49 |
| O=C1[C@H](CC[C@H](O)c2ccc(F)cc2)[C@@H](c2ccc(O)cc2)N1c1ccc(F)cc1 [Ezetimibe (Zetia)] | inactive: -3.22 | inactive: -1.6 |
| OCCOc1ccc(/C(=C(/CCCl)c2ccccc2)c2ccccc2)cc1 [Ospemifene] | inactive: -1.94 | inactive: -0.467 |
| C[C@@H](O)[C@H]1C(=O)N2C(C(=O)OCOC(=O)C(C)(C)C)=C(SC3CN(C4=NCCS4)C3)[C@H](C)[C@H]12 [Tebipenem pivoxil (L-084)] | inactive: -0.427 | inactive: 0.216 |
| CC(C)/N=c1\cc2n(-c3ccc(Cl)cc3)c3ccccc3nc-2cc1Nc1ccc(Cl)cc1 [Clofazimine] | inactive: 0.537 | inactive: -1.97 |
| COC(=O)C1=C(C)NC(C)=C(C(=O)OCCN2CCN(C(c3ccccc3)c3ccccc3)CC2)C1c1cccc([N+](=O)[O-])c1 (stereo unspecified) [Manidipine (Manyper)] | inactive: 0.0604 | inactive: -7.07 |
| CN[C@@H]1[C@H](O)[C@H](NC)[C@H]2O[C@@]3(O)C(=O)C[C@@H](C)O[C@H]3O[C@@H]2[C@H]1O [Spectinomycin  hydrochloride] | inactive: -1.8 | inactive: -0.557 |
| CC(C)(Oc1ccc(Cl)cc1)C(=O)O [Clofibric acid] | inactive: 0.473 | active: 2.23 |
| CC1(C)S[C@@H]2[C@H](NC(=O)[C@H](N)c3ccccc3)C(=O)N2[C@H]1C(=O)O [Ampicillin sodium] | inactive: -0.936 | inactive: 0.831 |
| COc1ccccc1N1CCN(CCCNc2cc(=O)n(C)c(=O)n2C)CC1 [Urapidil HCl] | inactive: 0.251 | inactive: -1.4 |
| CCC(C)C1OC2(CCC1C)CC1CC(CC=C(C)C(OC3CC(OC)C(OC4CC(OC)C(O)C(C)O4)C(C)O3)C(C)C=CC=C3COC4C(O)C(C)=CC(C(=O)O1)C34O)O2 (stereo unspecified) [Ivermectin] | inactive: -2.73 | inactive: -2.79 |
| CN(C)CCC(c1ccc(Cl)cc1)c1ccccn1 (stereo unspecified) [Chlorpheniramine Maleate] | inactive: -2.51 | inactive: -0.631 |
| C[C@@H](O)[C@H]1C(=O)N2C(C(=O)O)=C(S[C@@H]3CN[C@H](C(=O)N(C)C)C3)[C@H](C)[C@H]12 [Meropenem] | inactive: -2.78 | inactive: -0.199 |
| NC(N)=Nc1nc(CSCC/C(N)=N/S(N)(=O)=O)cs1 [Famotidine (Pepcid)] | inactive: 0.469 | inactive: -0.984 |
| CNC(=O)c1ccccc1Sc1ccc2c(/C=C/c3ccccn3)n[nH]c2c1 [Axitinib] | inactive: -2.62 | inactive: -6.09 |
| Cc1cn([C@H]2C[C@H](N=[N+]=[N-])[C@@H](CO)O2)c(=O)[nH]c1=O [Zidovudine (Retrovir)] | inactive: 0.537 | inactive: 0.00589 |
| CCCCCCCCCCCCCCCC[N+](C)(C)C [Cetrimonium Bromide] | inactive: -2.46 | inactive: -2.2 |
| CC/C(=C(/CC)c1ccc(O)cc1)c1ccc(O)cc1 [Diethylstilbestrol (Stilbestrol)] | inactive: -2.6 | inactive: -1.58 |
| Cc1c(O)cccc1C(=O)N[C@@H](CSc1ccccc1)[C@H](O)CN1C[C@H]2CCCC[C@H]2C[C@H]1C(=O)NC(C)(C)C [Nelfinavir Mesylate] | inactive: -2.23 | inactive: -0.254 |
| C[C@@H](O)[C@H]1C(=O)N2C(C(=O)O)=C(S[C@@H]3CN[C@H](CNS(N)(=O)=O)C3)[C@H](C)[C@H]12 [Doripenem Hydrate] | inactive: -2.73 | inactive: -2.71 |
| C[C@@H]1CCN(C(=O)CC#N)C[C@@H]1N(C)c1ncnc2[nH]ccc12 | active: 2.12 | inactive: 1.67 |
| CC(C)(C)c1ccc(C(O)CCCN2CCC(C(O)(c3ccccc3)c3ccccc3)CC2)cc1 (stereo unspecified) [Terfenadine] | inactive: -2.2 | inactive: 0.81 |

Two entries from above, set out differently:
SMILES	secreted FVIII-Gluc luciferase Z-score [1]	secreted FVIII-Gluc luciferase Z-score [2]
CC1(C)S[C@@H]2[C@H](NC(=O)[C@H](N)c3ccccc3)C(=O)N2[C@H]1C(=O)O [Ampicillin sodium]	inactive: -0.936	inactive: 0.831
COc1ccccc1N1CCN(CCCNc2cc(=O)n(C)c(=O)n2C)CC1 [Urapidil HCl]	inactive: 0.251	inactive: -1.4
